From the supplement of paper PMC4840960
The list shows a part of the results. Baselines shift from plate to plate; read single values as rough.

Tested on: E18 rat cortical neuron-glia co-culture
Experiment: total nuclei (DAPI) / Olig2+ nuclei (ratio); higher = more depletion of OPC/OL lineage cells
Conditions: treatment time: 8 days (DIV5-DIV13)

SMILES: CC(C)(C)NC(=O)[C@@H]1CN(Cc2cccnc2)CCN1C[C@@H](O)C[C@@H](Cc1ccccc1)C(=O)N[C@H]1c2ccccc2C[C@H]1O [Indinavir]
- total nuclei (1 µM): 5.52
- total nuclei (5 µM): 6.2

SMILES: C[C@H]1COc2c(C3(N)CC3)c(F)cc3c(=O)c(C(=O)O)cn1c23 [Pazufloxacin]
- total nuclei (1 µM): 5.3
- total nuclei (5 µM): 5.7

SMILES: Nc1ccn([C@@H]2O[C@H](CO)[C@@H](O)[C@@H]2O)c(=O)n1 [Cytarabine]
- total nuclei (1 µM): > 40
- total nuclei (5 µM): > 40

SMILES: O=C(NCCN1CCOCC1)c1ccc(Cl)cc1 [Moclobemide]
- total nuclei (1 µM): 3.74
- total nuclei (5 µM): 3.8

SMILES: CC(=O)[C@H]1CC[C@H]2[C@@H]3CCC4=CC(=O)CC[C@]4(C)[C@H]3CC[C@]12C [Progesterone]
- total nuclei (1 µM): 3.27
- total nuclei (5 µM): 3.6

SMILES: CCOC(=O)[C@@]1(CCCCCCOc2ccc(Cl)cc2)CO1 [Etomoxir]
- total nuclei (1 µM): 3.47
- total nuclei (5 µM): 3.8

SMILES: CCN(CC)C(=S)SSC(=S)N(CC)CC [Disulfiram]
- total nuclei (1 µM): 4.58
- total nuclei (5 µM): > 40

SMILES: CN1CCN(CC/C=C2/c3ccccc3Sc3ccc(S(=O)(=O)N(C)C)cc32)CC1 [Thiothixene]
- total nuclei (1 µM): 4.19
- total nuclei (5 µM): 10.5
